Experimental data as given in the supplement of paper PMC12819154, “High-throughput peptide-centric local stability assay extends protein–ligand identification to membrane proteins, tissues and bacteria” (Nature Structural & Molecular Biology, 2025).
The other results are listed elsewhere or left out. Most values lie at the level of the controls, where differences are scatter.

The chains behind the UniProt entries cited, without tags or fusion partners. Where a name states a change or a piece, a line headed by the entry shows the natural chain unless it says otherwise.
UniProt Q5T870: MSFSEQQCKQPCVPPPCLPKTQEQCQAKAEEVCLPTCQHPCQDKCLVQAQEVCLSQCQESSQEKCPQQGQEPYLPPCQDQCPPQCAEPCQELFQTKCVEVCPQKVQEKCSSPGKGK
UniProt Q53EL6: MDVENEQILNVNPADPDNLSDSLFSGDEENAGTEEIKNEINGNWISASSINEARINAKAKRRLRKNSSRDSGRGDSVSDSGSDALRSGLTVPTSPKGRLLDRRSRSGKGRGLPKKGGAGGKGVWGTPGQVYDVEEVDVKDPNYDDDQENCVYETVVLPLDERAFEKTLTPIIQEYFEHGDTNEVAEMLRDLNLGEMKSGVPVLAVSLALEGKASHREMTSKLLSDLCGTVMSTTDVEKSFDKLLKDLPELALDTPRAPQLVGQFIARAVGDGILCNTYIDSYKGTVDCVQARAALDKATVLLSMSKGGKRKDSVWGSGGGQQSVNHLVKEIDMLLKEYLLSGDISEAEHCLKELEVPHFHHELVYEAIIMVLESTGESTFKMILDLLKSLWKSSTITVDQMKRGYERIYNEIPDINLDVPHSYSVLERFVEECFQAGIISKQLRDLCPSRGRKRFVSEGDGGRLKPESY
UniProt Q49AM1: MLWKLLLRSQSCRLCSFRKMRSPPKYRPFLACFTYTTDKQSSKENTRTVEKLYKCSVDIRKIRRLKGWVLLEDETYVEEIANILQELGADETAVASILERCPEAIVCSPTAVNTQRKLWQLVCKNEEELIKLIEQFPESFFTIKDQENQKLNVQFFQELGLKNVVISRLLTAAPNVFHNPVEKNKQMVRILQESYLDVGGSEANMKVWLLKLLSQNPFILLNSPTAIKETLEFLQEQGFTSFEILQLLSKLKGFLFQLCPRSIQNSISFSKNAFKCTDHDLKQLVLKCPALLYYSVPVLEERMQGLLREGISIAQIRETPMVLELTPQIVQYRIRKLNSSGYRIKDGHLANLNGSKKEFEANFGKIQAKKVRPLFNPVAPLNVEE
UniProt Q5JPI9: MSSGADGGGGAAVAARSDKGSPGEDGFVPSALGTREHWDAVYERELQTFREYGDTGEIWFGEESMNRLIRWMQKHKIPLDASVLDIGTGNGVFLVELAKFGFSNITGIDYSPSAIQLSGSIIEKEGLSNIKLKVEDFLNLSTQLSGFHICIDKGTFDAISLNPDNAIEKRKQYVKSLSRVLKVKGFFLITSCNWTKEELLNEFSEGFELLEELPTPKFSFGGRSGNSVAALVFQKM
UniProt Q5EBL8: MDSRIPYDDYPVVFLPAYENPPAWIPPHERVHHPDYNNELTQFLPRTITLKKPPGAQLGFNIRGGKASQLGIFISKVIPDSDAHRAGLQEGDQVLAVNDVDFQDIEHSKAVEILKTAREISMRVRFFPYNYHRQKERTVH
UniProt Q53EZ4: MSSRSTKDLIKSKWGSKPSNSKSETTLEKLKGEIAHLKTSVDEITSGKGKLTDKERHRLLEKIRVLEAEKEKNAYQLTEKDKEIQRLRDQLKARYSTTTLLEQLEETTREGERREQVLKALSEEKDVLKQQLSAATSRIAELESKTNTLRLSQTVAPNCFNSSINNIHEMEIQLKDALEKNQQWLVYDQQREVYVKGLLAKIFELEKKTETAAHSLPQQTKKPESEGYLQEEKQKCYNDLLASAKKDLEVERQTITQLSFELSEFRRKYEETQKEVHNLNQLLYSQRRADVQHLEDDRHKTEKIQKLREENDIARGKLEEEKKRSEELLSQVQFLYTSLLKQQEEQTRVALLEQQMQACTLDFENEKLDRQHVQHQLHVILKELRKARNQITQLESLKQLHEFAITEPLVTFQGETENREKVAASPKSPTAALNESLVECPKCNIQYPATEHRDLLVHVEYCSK
UniProt Q5TBA9: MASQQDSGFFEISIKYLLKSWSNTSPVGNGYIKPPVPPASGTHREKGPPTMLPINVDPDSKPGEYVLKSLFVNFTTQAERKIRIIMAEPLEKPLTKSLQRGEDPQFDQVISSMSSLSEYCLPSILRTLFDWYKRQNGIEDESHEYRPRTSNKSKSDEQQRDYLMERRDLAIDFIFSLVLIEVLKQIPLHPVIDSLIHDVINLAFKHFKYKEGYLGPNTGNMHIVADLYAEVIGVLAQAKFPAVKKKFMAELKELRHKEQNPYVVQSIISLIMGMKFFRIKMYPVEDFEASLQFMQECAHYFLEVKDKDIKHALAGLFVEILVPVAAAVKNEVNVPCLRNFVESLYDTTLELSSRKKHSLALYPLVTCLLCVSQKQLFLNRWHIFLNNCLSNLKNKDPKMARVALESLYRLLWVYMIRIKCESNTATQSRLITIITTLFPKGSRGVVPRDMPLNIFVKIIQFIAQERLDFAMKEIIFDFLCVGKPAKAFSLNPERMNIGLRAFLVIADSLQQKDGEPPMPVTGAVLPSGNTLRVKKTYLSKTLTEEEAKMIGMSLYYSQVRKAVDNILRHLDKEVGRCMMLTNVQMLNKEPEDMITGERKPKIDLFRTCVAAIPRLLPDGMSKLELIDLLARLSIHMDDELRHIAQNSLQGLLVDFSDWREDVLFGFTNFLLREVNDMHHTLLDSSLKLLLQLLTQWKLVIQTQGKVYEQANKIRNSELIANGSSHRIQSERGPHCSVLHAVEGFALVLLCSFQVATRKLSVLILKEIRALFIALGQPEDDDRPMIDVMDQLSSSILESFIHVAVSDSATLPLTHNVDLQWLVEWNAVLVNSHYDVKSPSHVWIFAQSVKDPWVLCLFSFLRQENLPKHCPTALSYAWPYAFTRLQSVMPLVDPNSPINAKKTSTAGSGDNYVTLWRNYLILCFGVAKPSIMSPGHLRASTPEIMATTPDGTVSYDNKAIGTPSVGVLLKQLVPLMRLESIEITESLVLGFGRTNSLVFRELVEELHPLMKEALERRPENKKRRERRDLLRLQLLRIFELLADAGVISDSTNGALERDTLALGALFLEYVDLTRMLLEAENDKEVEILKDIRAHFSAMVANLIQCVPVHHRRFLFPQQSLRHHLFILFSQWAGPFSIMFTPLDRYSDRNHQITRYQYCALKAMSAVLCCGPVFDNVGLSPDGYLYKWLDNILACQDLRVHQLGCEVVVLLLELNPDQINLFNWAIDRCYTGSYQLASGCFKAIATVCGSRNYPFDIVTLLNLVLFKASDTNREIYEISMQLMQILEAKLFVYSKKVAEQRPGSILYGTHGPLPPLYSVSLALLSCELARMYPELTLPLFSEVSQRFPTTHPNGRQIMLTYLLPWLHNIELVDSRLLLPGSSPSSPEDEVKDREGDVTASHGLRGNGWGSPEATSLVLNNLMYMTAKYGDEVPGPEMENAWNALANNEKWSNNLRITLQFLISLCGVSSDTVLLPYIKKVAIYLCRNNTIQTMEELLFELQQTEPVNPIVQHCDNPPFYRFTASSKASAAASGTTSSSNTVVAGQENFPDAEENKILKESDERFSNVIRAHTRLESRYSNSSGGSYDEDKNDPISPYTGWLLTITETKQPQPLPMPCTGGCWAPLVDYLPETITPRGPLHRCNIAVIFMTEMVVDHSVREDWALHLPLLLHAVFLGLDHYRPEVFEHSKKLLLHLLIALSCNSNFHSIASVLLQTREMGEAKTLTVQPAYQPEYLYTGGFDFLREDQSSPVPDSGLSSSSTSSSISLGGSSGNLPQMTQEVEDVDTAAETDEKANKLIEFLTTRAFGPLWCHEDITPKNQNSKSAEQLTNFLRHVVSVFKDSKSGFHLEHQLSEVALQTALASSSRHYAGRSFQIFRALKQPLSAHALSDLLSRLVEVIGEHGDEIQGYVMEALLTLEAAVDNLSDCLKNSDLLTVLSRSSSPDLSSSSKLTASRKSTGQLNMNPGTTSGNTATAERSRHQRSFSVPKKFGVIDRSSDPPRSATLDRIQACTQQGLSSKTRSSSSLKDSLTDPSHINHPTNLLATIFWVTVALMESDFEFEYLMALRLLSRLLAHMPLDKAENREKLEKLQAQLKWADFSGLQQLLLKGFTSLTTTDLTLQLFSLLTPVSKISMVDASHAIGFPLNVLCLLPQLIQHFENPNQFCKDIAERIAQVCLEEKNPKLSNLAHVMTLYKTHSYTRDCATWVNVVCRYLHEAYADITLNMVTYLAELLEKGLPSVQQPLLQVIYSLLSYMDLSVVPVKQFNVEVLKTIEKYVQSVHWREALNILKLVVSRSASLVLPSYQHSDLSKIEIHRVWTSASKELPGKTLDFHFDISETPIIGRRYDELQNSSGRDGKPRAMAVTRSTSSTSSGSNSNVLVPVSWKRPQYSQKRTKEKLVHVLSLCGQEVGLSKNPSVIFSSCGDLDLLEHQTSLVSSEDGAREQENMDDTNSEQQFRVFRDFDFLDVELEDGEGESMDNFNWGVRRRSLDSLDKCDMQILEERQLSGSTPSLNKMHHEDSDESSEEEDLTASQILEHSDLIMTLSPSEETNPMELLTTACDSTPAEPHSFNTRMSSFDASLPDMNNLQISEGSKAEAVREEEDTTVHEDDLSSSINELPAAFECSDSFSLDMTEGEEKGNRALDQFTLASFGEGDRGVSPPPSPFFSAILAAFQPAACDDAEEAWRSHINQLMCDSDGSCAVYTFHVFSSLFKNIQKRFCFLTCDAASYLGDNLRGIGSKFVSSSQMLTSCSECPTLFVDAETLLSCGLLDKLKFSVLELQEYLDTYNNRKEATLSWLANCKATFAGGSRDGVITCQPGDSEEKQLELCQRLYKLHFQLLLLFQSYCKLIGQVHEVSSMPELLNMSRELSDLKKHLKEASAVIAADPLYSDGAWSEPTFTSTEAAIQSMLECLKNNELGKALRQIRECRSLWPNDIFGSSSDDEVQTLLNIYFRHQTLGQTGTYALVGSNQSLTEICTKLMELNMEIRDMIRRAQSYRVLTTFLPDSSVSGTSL
UniProt Q5TB80: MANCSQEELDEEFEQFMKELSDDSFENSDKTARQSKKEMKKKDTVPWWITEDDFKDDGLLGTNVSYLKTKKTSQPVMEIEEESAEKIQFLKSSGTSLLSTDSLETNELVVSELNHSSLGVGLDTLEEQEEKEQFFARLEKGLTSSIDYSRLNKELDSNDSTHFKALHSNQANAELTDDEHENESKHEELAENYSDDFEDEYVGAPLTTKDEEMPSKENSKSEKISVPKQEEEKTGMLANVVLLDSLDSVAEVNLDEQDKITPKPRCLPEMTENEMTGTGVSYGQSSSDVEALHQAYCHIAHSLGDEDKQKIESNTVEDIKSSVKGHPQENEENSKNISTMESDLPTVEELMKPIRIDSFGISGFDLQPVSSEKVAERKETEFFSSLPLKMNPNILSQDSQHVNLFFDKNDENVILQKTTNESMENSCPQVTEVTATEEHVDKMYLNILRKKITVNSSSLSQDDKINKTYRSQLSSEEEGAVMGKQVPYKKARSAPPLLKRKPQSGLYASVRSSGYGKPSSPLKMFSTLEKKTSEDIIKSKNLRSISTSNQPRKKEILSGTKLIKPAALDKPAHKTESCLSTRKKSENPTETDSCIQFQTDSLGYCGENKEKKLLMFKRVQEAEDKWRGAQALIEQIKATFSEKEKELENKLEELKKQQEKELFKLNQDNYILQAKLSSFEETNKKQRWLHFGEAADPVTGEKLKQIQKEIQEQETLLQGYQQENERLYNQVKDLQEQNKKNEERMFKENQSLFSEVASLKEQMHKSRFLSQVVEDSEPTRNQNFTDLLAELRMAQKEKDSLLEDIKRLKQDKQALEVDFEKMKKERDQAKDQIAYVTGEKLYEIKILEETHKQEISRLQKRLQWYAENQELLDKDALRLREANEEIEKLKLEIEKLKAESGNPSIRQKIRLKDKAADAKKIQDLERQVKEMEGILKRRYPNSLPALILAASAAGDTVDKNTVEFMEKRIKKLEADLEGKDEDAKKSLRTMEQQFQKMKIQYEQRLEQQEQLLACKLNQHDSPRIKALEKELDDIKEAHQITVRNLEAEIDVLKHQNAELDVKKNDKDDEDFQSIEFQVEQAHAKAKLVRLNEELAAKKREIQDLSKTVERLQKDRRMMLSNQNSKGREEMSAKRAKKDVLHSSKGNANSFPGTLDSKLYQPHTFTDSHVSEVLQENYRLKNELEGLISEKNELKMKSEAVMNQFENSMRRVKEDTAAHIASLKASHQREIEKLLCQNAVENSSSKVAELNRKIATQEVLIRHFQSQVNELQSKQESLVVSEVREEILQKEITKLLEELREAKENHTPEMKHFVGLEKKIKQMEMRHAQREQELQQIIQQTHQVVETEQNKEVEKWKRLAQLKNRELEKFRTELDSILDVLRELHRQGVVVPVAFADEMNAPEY

Compound: Cc1nc(Nc2ncc(C(=O)Nc3c(C)cccc3Cl)s2)cc(N2CCN(CCO)CC2)n1 [dasatinib]
Test: log2 fold change of tryptic peptide abundance, ligand vs vehicle (limited proteolysis) (log2 ratio); higher = more trypsin-susceptible (destabilized)
Conditions: ligand concentration: 5 uM; sample: K562 cleared lysate

Row | Target | log2 fold change
1 | RIF1 (peptide sequence: MTGEEGKEVITEIEKK, peptide start residue: 37) (UniProt Q5UIP0) | 0.276
2 | RC3H1 (peptide sequence: GASCTFAHSQEELEK, peptide start residue: 431) (UniProt Q5TC82) | 0.344
3 | UniProt Q5T870 (peptide sequence: TQEQCQAK, peptide start residue: 21) | -0.374
4 | FNDC3B (peptide sequence: SSCTTVYNGYGK, peptide start residue: 216) (UniProt Q53EP0) | -0.701
5 | PDCD4 (peptide sequence: DLPELALDTPR, peptide start residue: 246) (UniProt Q53EL6) | 0.0999
6 | MTERF2 (peptide sequence: IKDGHLANLNGSKK, peptide start residue: 344) (UniProt Q49AM1) | -0.711
7 | UniProt Q5JPI9 (peptide sequence: EHWDAVYER, peptide start residue: 36) | 0.063
8 | PDZD11 (peptide sequence: VHHPDYNNELTQFLPR, peptide start residue: 31) (UniProt Q5EBL8) | 0.358
9 | CEP55 (peptide sequence: QKCYNDLLASAK, peptide start residue: 234) (UniProt Q53EZ4) | -0.4
10 | FRY (peptide sequence: VALESLYR, peptide start residue: 354) (UniProt Q5TBA9) | -0.0333
11 | CEP162 (peptide sequence: GHPQENEENSK, peptide start residue: 325) (UniProt Q5TB80) | -0.443

Two entries from above, in markdown:

| Row | Target | log2 fold change |
| --- | --- | --- |
| 1 | RIF1 (peptide sequence: MTGEEGKEVITEIEKK, peptide start residue: 37) (UniProt Q5UIP0) | 0.276 |
| 2 | RC3H1 (peptide sequence: GASCTFAHSQEELEK, peptide start residue: 431) (UniProt Q5TC82) | 0.344 |
